Laboratory results as given in paper PMC10732220.
No constants are given. Whether binding was seen depends on the method and setting. In cells and extracts the contact can be indirect. A yes stands for co-enrichment or nearness to the bait. Other partners may have been found. Where a sequence is shown, tags or fusion partners need not be part of it.

Sequences of proteins named here, by UniProt entry; tags and fusion partners are left off. A change or cut given only in a name is not applied to a line headed by its entry.
UniProt Q7VWI6: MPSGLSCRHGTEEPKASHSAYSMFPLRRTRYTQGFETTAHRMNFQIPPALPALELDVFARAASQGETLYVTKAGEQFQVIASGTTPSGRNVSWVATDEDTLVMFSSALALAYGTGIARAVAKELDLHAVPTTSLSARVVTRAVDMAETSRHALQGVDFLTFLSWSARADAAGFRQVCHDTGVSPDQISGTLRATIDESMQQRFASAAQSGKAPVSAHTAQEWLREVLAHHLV

Target: T1, CesT family T3SS chaperone BP2265, triple FLAG-tagged (Bordetella pertussis (strain B1917)) (UniProt Q7VWI2)
T1 sequence: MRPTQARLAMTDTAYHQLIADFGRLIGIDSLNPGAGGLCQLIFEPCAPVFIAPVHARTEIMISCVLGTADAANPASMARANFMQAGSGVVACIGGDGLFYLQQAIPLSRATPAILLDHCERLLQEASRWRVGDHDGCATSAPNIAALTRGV
Experiment: affinity purification with mass spectrometry; cleared lysates of B. pertussis B1917 with FLAG-tagged BP2265 (bait) or non-tagged BP2265 (control), in triplicate, on ANTI-FLAG M2 magnetic beads, about 16 h at 4 °C; lysis buffer TBS (50 mM Tris pH 7.5, 150 mM NaCl), 1 mM EDTA, 0.1% IGEPAL CA-630; washed three times in TBS; beads-bound fraction and elution fraction (100 mM glycine pH 3) both analysed by LC-MS/MS

With “anti-sigma factor BtrA (from UniProt Q7VWI6)” as the substance, how does the binding read?
Its binding is “binds”.
